Test system: tumors compared to a panel of normal tissues
Assay: Identification and label-free LC-MS quantitation of HLA-presented tumor associated peptides (presentation profiles/scores)
Design: species or system human; key to Peptide Presentation (presentation score): very highly over-presented on tumors compared to a panel of normal tissues (+++); highly over-presented on tumors compared to a panel of normal tissues (++); over-presented on tumors compared to a panel of normal tissues (+)
Conditions: for Peptide Presentation (presentation score): over-presentation on tumors compared to a panel of normal tissues, label-free LC-MS quantitation of HLA peptides

**Q.** How did the “Peptide Presentation (presentation score)” value (“Peptide Presentation” for short) turn out when “109 (ILASVILNV; listed as Homo sapiens) [compound 109]” was run?
**A.** ++

**Q.** For “164 (YLGRLAHEV; listed as Homo sapiens) [compound 164]”, which “Peptide Presentation” value is on record?
**A.** ++

**Q.** Which “Peptide Presentation” value does the source give for “16 (GLIDYDTGI; listed as Homo sapiens) [compound 16]” here?
**A.** +++

**Q.** For “30 (YIYKDTIQV; listed as Homo sapiens) [compound 30]”, which “Peptide Presentation” value is on record?
**A.** +++

**Q.** How did the “Peptide Presentation” value turn out when “143 (TADPLDYRL; listed as Homo sapiens) [compound 143]” was run?
**A.** ++

**Q.** For “156 (LLLPPPPCPA; listed as Homo sapiens) [compound 156]”, which “Peptide Presentation” value is on record?
**A.** +

**Q.** With “158 (SLIEKYFSV; listed as Homo sapiens) [compound 158]” as the substance, how does the “Peptide Presentation” value read?
**A.** +

**Q.** With “57 (RLSELGITQA; listed as Homo sapiens) [compound 57]” as the substance, how does the “peptide additionally detected on brain cancers (positive/measured samples)” value read?
**A.** 1/34

**Q.** And the “peptide additionally detected on breast cancers (positive/measured samples)” value?
**A.** 1/18

**Q.** What about the “peptide additionally detected on esophageal cancers (positive/measured samples)” value of the same substance?
**A.** 2/18

**Q.** What about the “peptide additionally found on head and neck cancers (positive/measured samples)” value of the same substance?
**A.** 2/8

**Q.** What about the “peptide additionally detected on liver cancers (positive/measured samples)” value of the same substance?
**A.** 1/21

**Q.** What about the “peptide additionally detected on lung cancers (positive/measured samples)” value of the same substance?
**A.** 8/107

**Q.** And the “peptide additionally found on lymph node cancers (positive/measured samples)” value?
**A.** 4/20

**Q.** And the “peptide additionally found on myeloid cell cancers (positive/measured samples)” value?
**A.** 1/18

**Q.** And the “peptide additionally detected on ovarian cancers (positive/measured samples)” value?
**A.** 4/20

**Q.** What about the “Peptide Presentation” value of the same substance?
**A.** ++

**Q.** What about the “peptide additionally found on skin cancers (positive/measured samples)” value of the same substance?
**A.** 4/18

**Q.** What about the “peptide additionally detected on urinary bladder cancers (positive/measured samples)” value of the same substance?
**A.** 2/15

**Q.** What about the “peptide additionally found on uterus cancers (positive/measured samples)” value of the same substance?
**A.** 1/16

**Q.** “128 (ALYDVRTILL; listed as Homo sapiens) [compound 128]” was tested. Which “peptide additionally detected on breast cancers (positive/measured samples)” value did it give?
**A.** 2/18

**Q.** And the “peptide additionally found on colon or rectum cancers (positive/measured samples)” value?
**A.** 3/29

**Q.** And the “peptide additionally found on leukocytic leukemia cancers (positive/measured samples)” value?
**A.** 1/17

**Q.** What about the “peptide additionally detected on lung cancers (positive/measured samples)” value of the same substance?
**A.** 8/107

**Q.** What about the “peptide additionally found on lymph node cancers (positive/measured samples)” value of the same substance?
**A.** 1/20

**Q.** What about the “peptide additionally detected on ovarian cancers (positive/measured samples)” value of the same substance?
**A.** 1/20

**Q.** And the “Peptide Presentation” value?
**A.** +++

**Q.** What about the “peptide additionally detected on urinary bladder cancers (positive/measured samples)” value of the same substance?
**A.** 1/15

**Q.** Which “Peptide Presentation” value does the source give for “149 (ILGTEDLIVEV; listed as Homo sapiens) [compound 149]” here?
**A.** +

**Q.** “118 (TLWYRPPEL; listed as Homo sapiens) [compound 118]” was tested. Which “Peptide Presentation” value did it give?
**A.** ++

**Q.** With “3 (ILIGETIKI; listed as Homo sapiens) [compound 3]” as the substance, how does the “peptide additionally detected on colorectal cancers (positive/measured samples)” value read?
**A.** 1/24

**Q.** What about the “peptide additionally detected on kidney cancers (positive/measured samples)” value of the same substance?
**A.** 1/18

**Q.** What about the “peptide additionally detected on lung cancers (positive/measured samples)” value of the same substance?
**A.** 4/91

**Q.** And the “peptide additionally detected on ovarian cancers (positive/measured samples)” value?
**A.** 1/20

**Q.** And the “Peptide Presentation” value?
**A.** +++

**Q.** What about the “peptide additionally detected on urinary bladder cancers (positive/measured samples)” value of the same substance?
**A.** 1/4

**Q.** For “115 (SLMDPNKFLLL; listed as Homo sapiens) [compound 115]”, which “peptide additionally detected on brain cancers (positive/measured samples)” value is on record?
**A.** 7/29

**Q.** What about the “peptide additionally detected on breast cancers (positive/measured samples)” value of the same substance?
**A.** 1/6

**Q.** And the “peptide additionally detected on colorectal cancers (positive/measured samples)” value?
**A.** 5/24

**Q.** What about the “peptide additionally detected on esophageal cancers (positive/measured samples)” value of the same substance?
**A.** 1/17

**Q.** And the “peptide additionally detected on gallbladder or bile duct cancers (positive/measured samples)” value?
**A.** 1/2

**Q.** And the “peptide additionally detected on kidney cancers (positive/measured samples)” value?
**A.** 3/18

**Q.** What about the “peptide additionally detected on leukemias (positive/measured samples)” value (leukemias) of the same substance?
**A.** 3/12

**Q.** What about the “peptide additionally detected on liver cancers (positive/measured samples)” value of the same substance?
**A.** 6/16

**Q.** What about the “peptide additionally detected on melanomas (positive/measured samples)” value (melanomas) of the same substance?
**A.** 1/2

**Q.** What about the “peptide additionally detected on non-small cell lung carcinomas (positive/measured samples)” value (non-small cell lung carcinomas) of the same substance?
**A.** 16/91

**Q.** And the “peptide additionally detected on ovarian cancers (positive/measured samples)” value?
**A.** 5/20

**Q.** What about the “Peptide Presentation” value of the same substance?
**A.** ++

**Q.** What about the “peptide additionally detected on prostate cancers (positive/measured samples)” value of the same substance?
**A.** 3/33

**Q.** What about the “peptide additionally detected on small cell lung carcinomas (positive/measured samples)” value (small cell lung carcinomas) of the same substance?
**A.** 3/14

**Q.** And the “peptide additionally detected on urinary bladder cancers (positive/measured samples)” value?
**A.** 1/4

**Q.** Which “Peptide Presentation” value does the source give for “71 (VLLPEGGITAI; listed as Homo sapiens) [compound 71]” here?
**A.** +++

**Q.** For “93 (SIDSEPALV; listed as Homo sapiens) [compound 93]”, which “Peptide Presentation” value is on record?
**A.** +++

**Q.** How did the “Peptide Presentation” value turn out when “167 (MLFGHPLLVSV; listed as Homo sapiens) [compound 167]” was run?
**A.** +++

**Q.** “114 (SLFPHNPQFI; listed as Homo sapiens) [compound 114]” was tested. Which “Peptide Presentation” value did it give?
**A.** +++

**Q.** “29 (YILPFSEVL; listed as Homo sapiens) [compound 29]” was tested. Which “Peptide Presentation” value did it give?
**A.** +++

**Q.** Which results are given for “37 (FLNPDEVHAI; listed as Homo sapiens) [compound 37]”?
**A.** peptide additionally detected on brain cancers (positive/measured samples): 2/34; peptide additionally detected on breast cancers (positive/measured samples): 3/18; peptide additionally found on colon or rectum cancers (positive/measured samples): 6/29; peptide additionally detected on esophageal cancers (positive/measured samples): 2/18; peptide additionally detected on gallbladder or bile duct cancers (positive/measured samples): 2/17; peptide additionally found on head and neck cancers (positive/measured samples): 2/8; peptide additionally detected on kidney cancers (positive/measured samples): 1/23; peptide additionally detected on liver cancers (positive/measured samples): 5/21; peptide additionally detected on lung cancers (positive/measured samples): 25/107; peptide additionally found on lymph node cancers (positive/measured samples): 4/20; peptide additionally detected on ovarian cancers (positive/measured samples): 7/20; Peptide Presentation (presentation score): +; peptide additionally detected on prostate cancers (positive/measured samples): 1/87; peptide additionally found on skin cancers (positive/measured samples): 2/18; peptide additionally detected on stomach cancers (positive/measured samples) (stomach cancers): 2/45; peptide additionally detected on urinary bladder cancers (positive/measured samples): 6/15; peptide additionally found on uterus cancers (positive/measured samples): 3/16

**Q.** “68 (VLFDVTGQV; listed as Homo sapiens) [compound 68]” was tested. Which “Peptide Presentation” value did it give?
**A.** +++

**Q.** Which “Peptide Presentation” value does the source give for “169 (FMLPDPQNI; listed as Homo sapiens) [compound 169]” here?
**A.** +++

**Q.** Which “Peptide Presentation” value does the source give for “6 (ALTGIPLPLI; listed as Homo sapiens) [compound 6]” here?
**A.** +++

**Q.** Which “Peptide Presentation” value does the source give for “21 (GLVDGRDLVIV; listed as Homo sapiens) [compound 21]” here?
**A.** +++

**Q.** “96 (ALAPATGGGSLLL; listed as Homo sapiens) [compound 96]” was tested. Which “Peptide Presentation” value did it give?
**A.** +

**Q.** Which “Peptide Presentation” value does the source give for “73 (VMVDGKPVNL; listed as Homo sapiens) [compound 73]” here?
**A.** +

**Q.** Which “Peptide Presentation” value does the source give for “151 (ALLDIIRSL; listed as Homo sapiens) [compound 151]” here?
**A.** +++

**Q.** Which “Peptide Presentation” value does the source give for “166 (SLFPGQVVI; listed as Homo sapiens) [compound 166]” here?
**A.** +++

**Q.** For “125 (ALLGKLDAINV; listed as Homo sapiens) [compound 125]”, which “Peptide Presentation” value is on record?
**A.** +++

**Q.** Which “Peptide Presentation” value does the source give for “70 (VLGVIWGV; listed as Homo sapiens) [compound 70]” here?
**A.** +++

**Q.** “105 (FLSEVFHQA; listed as Homo sapiens) [compound 105]” was tested. Which “Peptide Presentation” value did it give?
**A.** +

**Q.** How did the “Peptide Presentation” value turn out when “51 (LLGPAGARA; listed as Homo sapiens) [compound 51]” was run?
**A.** +++

**Q.** Which “Peptide Presentation” value does the source give for “131 (FLIEEQKIVV; listed as Homo sapiens) [compound 131]” here?
**A.** +++

**Q.** Which “Peptide Presentation” value does the source give for “111 (LLLAAARLAAA; listed as Homo sapiens) [compound 111]” here?
**A.** +

**Q.** “90 (KLLTPITTL; listed as Homo sapiens) [compound 90]” was tested. Which “Peptide Presentation” value did it give?
**A.** +

**Q.** With “119 (VLGDDPQLMKV; listed as Homo sapiens) [compound 119]” as the substance, how does the “Peptide Presentation” value read?
**A.** +

**Q.** With “86 (GLGDFIFYSV; listed as Homo sapiens) [compound 86]” as the substance, how does the “Peptide Presentation” value read?
**A.** +

**Q.** How did the “peptide additionally detected on brain cancers (positive/measured samples)” value turn out when “127 (ALSDLALHFL; listed as Homo sapiens) [compound 127]” was run?
**A.** 1/34

**Q.** And the “peptide additionally detected on breast cancers (positive/measured samples)” value?
**A.** 2/18

**Q.** What about the “peptide additionally found on head and neck cancers (positive/measured samples)” value of the same substance?
**A.** 2/8

**Q.** And the “peptide additionally found on leukocytic leukemia cancers (positive/measured samples)” value?
**A.** 3/17

**Q.** What about the “peptide additionally detected on liver cancers (positive/measured samples)” value of the same substance?
**A.** 1/21

**Q.** What about the “peptide additionally detected on lung cancers (positive/measured samples)” value of the same substance?
**A.** 3/107

**Q.** And the “peptide additionally found on lymph node cancers (positive/measured samples)” value?
**A.** 4/20

**Q.** And the “peptide additionally found on myeloid cell cancers (positive/measured samples)” value?
**A.** 2/18

**Q.** And the “peptide additionally detected on ovarian cancers (positive/measured samples)” value?
**A.** 1/20

**Q.** And the “peptide additionally found on skin cancers (positive/measured samples)” value?
**A.** 3/18

**Q.** And the “peptide additionally detected on urinary bladder cancers (positive/measured samples)” value?
**A.** 4/15

**Q.** How did the “Peptide Presentation” value turn out when “171 (LLLDVTPLSL; listed as Homo sapiens) [compound 171]” was run?
**A.** ++

**Q.** “23 (KLDSSGGAVQL; listed as Homo sapiens) [compound 23]” was tested. Which “Peptide Presentation” value did it give?
**A.** ++
